Data from patent publication US20240043562A1 (ACADEMISCH ZIEKENHUIS LEIDEN H O D N LUMC, published 2024).
These are yes or no findings as the source states them, for the method shown. Some results given as binding are weak or reduced against the parent protein; the word gives no strength. One block for each binder: values may come before it.

Assays:
[1] = target: T1, recombinant MuSK produced in E. coli (UniProt O15146); test: MuSK ELISA of B cell culture medium (FIGS. 3 and 4)
T1 sequence (looked up): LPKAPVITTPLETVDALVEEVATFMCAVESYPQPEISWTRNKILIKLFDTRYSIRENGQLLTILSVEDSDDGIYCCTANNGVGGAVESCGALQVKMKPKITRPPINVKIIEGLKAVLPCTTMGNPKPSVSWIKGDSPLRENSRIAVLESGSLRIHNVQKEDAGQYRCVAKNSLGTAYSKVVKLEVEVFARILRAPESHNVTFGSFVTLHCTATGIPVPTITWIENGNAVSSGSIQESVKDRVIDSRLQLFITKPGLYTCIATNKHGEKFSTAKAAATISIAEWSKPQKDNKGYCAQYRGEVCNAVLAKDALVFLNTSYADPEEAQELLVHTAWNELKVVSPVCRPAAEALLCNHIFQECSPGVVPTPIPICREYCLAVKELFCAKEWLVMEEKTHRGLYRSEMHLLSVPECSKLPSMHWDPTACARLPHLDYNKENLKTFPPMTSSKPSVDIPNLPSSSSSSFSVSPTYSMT

[2] = target: T1, recombinant MuSK produced in E. coli; test: ELISA of single B cell culture medium on MuSK produced in E. coli
MuSK produced in yeast = target: T2, MuSK produced in yeast (UniProt O15146); test: ELISA of B cell culture medium on yeast-produced MuSK
T2 sequence (looked up): T1 sequence (looked up)

[3] = target: T3, MuSK at the postsynaptic membrane of mouse neuromuscular junctions (levator auris longus muscle) (mouse) (UniProt Q61006); test: immunostaining of isolated mouse skeletal muscle
T3 sequence (looked up): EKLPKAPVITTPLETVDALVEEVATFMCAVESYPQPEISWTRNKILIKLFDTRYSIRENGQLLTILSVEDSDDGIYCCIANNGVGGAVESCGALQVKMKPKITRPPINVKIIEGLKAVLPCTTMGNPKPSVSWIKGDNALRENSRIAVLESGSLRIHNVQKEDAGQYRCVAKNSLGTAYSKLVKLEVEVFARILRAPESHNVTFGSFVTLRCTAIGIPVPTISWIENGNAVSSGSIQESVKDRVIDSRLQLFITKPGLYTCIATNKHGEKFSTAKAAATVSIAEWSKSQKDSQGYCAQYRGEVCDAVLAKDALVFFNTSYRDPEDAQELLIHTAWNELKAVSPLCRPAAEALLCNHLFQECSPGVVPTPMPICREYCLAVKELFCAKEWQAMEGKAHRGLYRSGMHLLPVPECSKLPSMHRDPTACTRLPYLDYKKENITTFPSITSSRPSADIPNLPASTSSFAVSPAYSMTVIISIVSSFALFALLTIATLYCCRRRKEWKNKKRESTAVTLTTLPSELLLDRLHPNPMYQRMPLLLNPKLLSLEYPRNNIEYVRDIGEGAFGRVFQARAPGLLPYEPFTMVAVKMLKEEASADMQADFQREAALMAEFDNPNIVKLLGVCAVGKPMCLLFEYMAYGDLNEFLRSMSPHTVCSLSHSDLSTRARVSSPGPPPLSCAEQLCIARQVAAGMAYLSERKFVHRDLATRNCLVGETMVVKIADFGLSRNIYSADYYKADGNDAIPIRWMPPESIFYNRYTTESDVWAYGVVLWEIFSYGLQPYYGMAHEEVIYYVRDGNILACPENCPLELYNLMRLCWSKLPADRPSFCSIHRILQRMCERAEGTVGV

binding [1]: binds | binding [2]: binds
B1: 14-2E9 (antibody, V domains shown)
VH: EVQLVESGGGLVQPGGSLRLSCAASGFTFSSYWMHWVRQVPGKGLVWVSRLNEDGSTTNYADSVKGRFTISRDNAKYTLYLQMNSLRFEDTAVYYCVSDLSGKDEHWGQGTLVTVSS
VL: DIVMTQSPLSLPVTPGEPASISCRSTQSLLHSNGYYWLDWYLQKPGQSPQLLVYLGFNRASGVPDRFSGSGSGTDFTLKISRVEAEDVGVYYCMQGLQTPYTFGQGTTLEIK

binding [1]: binds | binding [2]: binds
B2: 13-4D3 (antibody, IgG3, V domains shown)
VH: EVQLMESGGGLVKPGGSLRLSCTASGFTFSSYTMTWVRQAPGKGLEWVSSISSGGHYIYYTDSLKGRFIISRDNAKNSVFLQMNNLRAEDTATYYCARERLLRLGVGFDFWGQGSLVTVSS
VL: DIQMTQSPSSLSASEGDRVTMTCRASQSISGYLNWYQQKPGKAPKLLIYAASTLQSGVPSRFSGSSSGTEFTLSISSLQPEDFATYYCQQSYSALYTFGQGTRVEIK

binding [1]: binds | binding [2]: binds
B3: 13-3D10 (antibody, IgG1, V domains shown)
VH: EDLLVESGGGLVKPGQSLTLSCAASGFDFSASTMAWVRQAPGKGLEWVASVSGDSHHIYYADSLKGRFTLSRDNARNSFFLEMNSLRAEDTAVYYCARERLLRLGVGFDSWGQGSLVAVSS
VL: DIHMTQSPSSLSSSVGDRVTMTCRASQRISGFVNWYQQKPGRAPTLLISAASTLQSGVPSRFSGSASGTDFTLTISGLQPEDSAIYYCQQSYSPLYTFGQGTKVEIK

binding [1]: binds | binding (MuSK produced in yeast): binds | binding [2]: binds
B4: 11-3F6 (antibody, V domains shown)
VH: EVQLVESGGGLVKPGGSLRLSCAASGFTFSSYTMDWVRQAPGKGLEWVSSIGSNGDYIYYADSVRGRFTISRDNAKNSLYLQMNSLRPDDTADYYCARGQLAVAGTHFDYWGRGSLVTVSS
VL: DIQMTQSPSSLSASVGDRVTISCRASQKVNKYVNWYQQTPGKAPRLLIYAASTLQSGVPSRFSGSGSGANFTLTISGLQPEDFAIYFCQQSYSPLCTFGQGTKLEIK

binding [3]: binds
B5: recombinant 11-3F6 IgG1 (antibody, V domains shown)
VH: B4 VH
VL: B4 VL

binding [1]: binds | binding [2]: binds
B6: 13-3B5 (antibody, V domains shown)
VH: QVQLVQSGAVVAKPGASVQVSCKTSGYTFTGQYLHWVRQAPGQGLEWIGWINPSSGVTKFAEKFEGRATMTRDTSITTAYIDLRSLRSDDTATYYCATLSLGVYYVGMVAWGQGTLVTVSS
VL: SYELTQPPSVSVSPGQTATITCSGDGLAQQHVYWFQQRPGQAPLLIIYKDIERPSGIPERFSGSSSGTTAMLTISGVQAEDEADYYCQSGDRTATSVLFGGGTKMTVL

binding [3]: binds
B7: recombinant 13-3B5 IgG1 (antibody, V domains shown)
VH: B6 VH
VL: B6 VL

binding [1]: binds | binding (MuSK produced in yeast): binds | binding [2]: binds
B8: 11-3D9 (antibody, IgG1, V domains shown)
VH: EVQLVESGGGLVKPGESLRLSCAASGFNFSTYTMHWVRQAPGKGLEWVSSISSRSAYKYYADSVKGRFTISRDIAKNSLYLQMNSLRAEDTAVYYCARDFFQLGPPRFDSWGQGTLVTVSS
VL: DIQMTQSPSSLSASIGDRVTISCRASQRISSFLNWYQQKPGKPPNLLIYGASNLQSGVPSRFSGSGSGTDFTLTITSLQPEDYAIYYCQQSYSPMYTFGQGTSLEIK
